From PubChem BioAssay AID540276 (National Center for Advancing Translational Sciences (NCATS), 2011)
The campaign covered roughly 300,000 compounds. About 5,400 (1.8%) were called active. Inconclusive means that the source gave no clear call. Such entries were picked first, then a sample of the others. Calls come from the whole dose curve; tested in HEK293 cells. Potencies beside an inconclusive call are fits to weak or partial responses and may not hold up.

Test: qHTS for inhibitors of binding or entry into cells for Marburg Virus
Details: Marburg virus pseudotyped entry inhibition, cell reporter; activity change, negative = inhibition: at 37.8 µM (top of the series) unless noted
% is set by controls: 0 for no effect and ±100 for the full control effect; potency is the fitted concentration of half-maximal effect.

**Q.** With `CCCn1nc(-c2ccccc2)c2nc3ccccc3nc21` as the compound, how does the “activity change, negative = inhibition” value read?
**A.** inactive: 12.7%

**Q.** Which “activity change, negative = inhibition” value does the source give for `CC(C)Nc1cc(N2CCN(C3CCCCC3)CC2)c2noc3c2c1C(=O)c1ccccc1-3` here?
**A.** inactive: 0.479% [at 46.1 µM]

**Q.** Which Potency does the source give for `COc1ccc(CCNc2nc(-c3ccccc3OC)cc(C(F)(F)F)n2)cc1OC` here?
**A.** inconclusive: 35.5 µM [inhibitor, partial curve, poor fit]

**Q.** With `Cc1ccccc1NC(=O)Cc1nc(COC(=O)c2cc([N+](=O)[O-])ccc2NCCO)cs1` as the compound, how does the Potency read?
**A.** inconclusive: 35.5 µM [inhibitor, single point]

**Q.** With `c1ccc2oc(-c3ccn[nH]3)cc2c1` as the compound, how does the Potency read?
**A.** inconclusive: 2.24 µM [activator, partial curve, poor fit]

**Q.** Which “activity change, negative = inhibition” value does the source give for `CC(OC(=O)c1ccc(O)cc1)C(=O)Nc1ccc(Oc2ccccc2)cc1` (centres undefined) here?
**A.** inactive: -4.57%

**Q.** With `COC(=O)/C(=C/c1c[nH]c2ccccc12)[N+](=O)[O-]` as the compound, how does the “activity change, negative = inhibition” value read?
**A.** inactive: 13.2%

**Q.** Which Potency does the source give for `COc1cccc(COc2ccc3c(C)cc(=O)oc3c2)c1` here?
**A.** inconclusive: 5.62 µM [activator, single point]

**Q.** For `O=C(N/N=C/c1ccc(N2CCCC2)c([N+](=O)[O-])c1)c1cccnc1`, which “activity change, negative = inhibition” value is on record?
**A.** inactive: 9.19% [at 46.1 µM]

**Q.** For `Cn1c(=O)n(Cc2ccccc2Br)c2ccccc21`, which Potency is on record?
**A.** inconclusive: 6.31 µM [inhibitor, full curve, poor fit]

**Q.** Which Potency does the source give for `CCOC(=O)c1c(N)sc2c(OCC)c(Br)ccc12` here?
**A.** inconclusive: 20.6 µM [inhibitor, single point]

**Q.** With `COc1ccc(S(=O)(=O)N2CCCC2C(=O)Nc2nccs2)cc1` (centres undefined) as the compound, how does the Potency read?
**A.** inconclusive: 10 µM [activator, partial curve, poor fit]

**Q.** For `Cc1cc(NC(=O)CCCSc2nc(-c3ccco3)cc(C(F)(F)F)n2)no1`, which “activity change, negative = inhibition” value is on record?
**A.** inactive: -29.7%

**Q.** Which Potency does the source give for `Cc1ccc2nc(N(CCCN(C)C)C(=O)c3cc4ccccc4oc3=O)sc2c1` here?
**A.** inconclusive: 1.16 µM [inhibitor, single point]

**Q.** With `CCC1=NN=C(c2ccc(F)cc2)C(c2c[nH]c3ccccc23)N1O` (centres undefined) as the compound, how does the Potency read?
**A.** inconclusive: 7.08 µM [activator, full curve, poor fit]

**Q.** Which Potency does the source give for `CCOc1ccc(C(=O)Nc2c(C)nc(Nc3ccccc3)nc2Nc2ccccc2)cc1OCC` here?
**A.** inconclusive: 15.8 µM [inhibitor, partial curve, poor fit]

**Q.** With `O=C(COc1ccc(Cl)cc1)Nc1cccc(-c2ccc3nncn3n2)c1` as the compound, how does the Potency read?
**A.** inconclusive: 35.5 µM [inhibitor, single point]

**Q.** With `O=C(Nc1ccccc1F)OC1CN2CCC1CC2` (centres undefined) as the compound, how does the “activity change, negative = inhibition” value read?
**A.** inactive: -5.62% [at 46.1 µM]

**Q.** Which Potency does the source give for `CC(=O)N(C)c1ccc(NC(=O)/C=C/c2ccccc2Cl)cc1` here?
**A.** inconclusive: 2.51 µM [activator, full curve, poor fit]

**Q.** For `Cc1ccc(-n2ccnc2SCC(=O)N(CC(C)C)C2CCS(=O)(=O)C2)c(C)c1` (centres undefined), which “activity change, negative = inhibition” value is on record?
**A.** inactive: -12.3%

**Q.** For `CN(C)c1ccc(/C=N/NC(=O)CN(c2cccc(Cl)c2)S(C)(=O)=O)cc1Br`, which Potency is on record?
**A.** inconclusive: 10 µM [inhibitor, partial curve, poor fit]

**Q.** For `Cc1ccccc1Cn1c(=O)n(CCCCC(=O)NCc2ccc3c(c2)OCO3)c(=O)c2ccccc21`, which Potency is on record?
**A.** inconclusive: 2.24 µM [inhibitor, single point]

**Q.** With `Cc1ccc(NC(=O)N[C@H](C(=O)O)C(C)C)c(C)c1` as the compound, how does the Potency read?
**A.** inconclusive: 35.5 µM [activator, single point]

**Q.** Which Potency does the source give for `CN(C)Cc1nc2ccccc2c(=O)n1Cc1nc(-c2cc3ccccc3o2)cs1` here?
**A.** active: 11.2 µM

**Q.** Which “activity change, negative = inhibition” value does the source give for `CC1=C(C(=O)Nc2ccccc2)C2(CCCCC2)C(C#N)=C(SCC(N)=O)N1` here?
**A.** inactive: 0.189%

**Q.** For `Cc1cc(C(=O)Nc2sc3c(c2C#N)CCCCC3)cs1`, which Potency is on record?
**A.** inconclusive: 0.146 µM [activator, partial curve, poor fit]

**Q.** Which “activity change, negative = inhibition” value does the source give for `Cc1occc1C(=O)Nc1nn[nH]n1` here?
**A.** inactive: 8.45%

**Q.** For `COc1ccc(N=Cc2c(O)n(Cc3ccccc3)c(=S)[nH]c2=O)c(OC)c1`, which “activity change, negative = inhibition” value is on record?
**A.** inactive: 6.3%

**Q.** Which Potency does the source give for `CCn1c(SCC(=O)Nc2nc3ccc(OC)cc3s2)nnc1-c1ccoc1C` here?
**A.** inconclusive: 6.31 µM [activator, single point]

**Q.** Which Potency does the source give for `Cc1ccc(C)c2c1cc(C)c1nnc(SCC(=O)N3CCCc4ccccc43)n12` here?
**A.** inconclusive: 3.16 µM [activator, single point]

**Q.** For `CCOC(=O)c1ccccc1NC(=O)c1cn(CC)c2nc(C)ccc2c1=O`, which “activity change, negative = inhibition” value is on record?
**A.** inactive: -0.915%

**Q.** Which Potency does the source give for `CCCN1C(=O)c2[nH]nc(-c3ccc(F)cc3)c2C1c1ccc(O)c(OCC)c1` (centres undefined) here?
**A.** inconclusive: 2.82 µM [inhibitor, partial curve, poor fit]

**Q.** For `O=C(N[C@@H](Cc1ccccc1)C(=O)O)c1cccs1`, which “activity change, negative = inhibition” value is on record?
**A.** inactive: 1.93% [at 46.1 µM]

**Q.** Which “activity change, negative = inhibition” value does the source give for `COc1ccc(C(CNC(=O)c2ccc(Cl)s2)N2CCOCC2)cc1` (centres undefined) here?
**A.** inactive: -13.5%

**Q.** For `COc1ccc(-c2cc(C(=O)Nc3sc4c(c3C#N)CCCC4)c3ccccc3n2)cc1OC`, which Potency is on record?
**A.** inconclusive: 4.47 µM [inhibitor, full curve]

**Q.** Which “activity change, negative = inhibition” value does the source give for `Cc1oc(-c2cccc(Cl)c2)nc1CN1CCC(C(=O)NCc2ccc(F)cc2)CC1` here?
**A.** inactive: -7.88% [at 46.1 µM]

**Q.** Which Potency does the source give for `CN(CC(=O)Nc1c(Cl)cccc1Cl)C(=O)CNC(=O)C1CCCCC1` here?
**A.** inconclusive: 1.26 µM [activator, single point]

**Q.** For `CCn1nnc(NC(=O)c2ccc(-c3ccccc3[N+](=O)[O-])o2)n1`, which “activity change, negative = inhibition” value is on record?
**A.** inactive: 18.2% [at 46.1 µM]

**Q.** With `Cc1cc(C)cc(-n2c(C)cc(/C=N/NC(=O)CN(c3c(C)cccc3C)S(C)(=O)=O)c2C)c1` as the compound, how does the Potency read?
**A.** inconclusive: 10 µM [inhibitor, partial curve, poor fit]

**Q.** With `CN(C)C(=O)c1ccc(NC(=O)CSc2nnc(-c3ccc4c(c3)OCO4)o2)cc1` as the compound, how does the Potency read?
**A.** inconclusive: 3.98 µM [inhibitor, single point]

**Q.** With `C=CCn1c(COc2ccc(OC)cc2)nnc1SCn1nnc2ccccc2c1=O` as the compound, how does the Potency read?
**A.** inconclusive: 22.4 µM [inhibitor, single point]

**Q.** With `CC(C)c1cc(C(=O)N/N=C/c2ccco2)n[nH]1` as the compound, how does the Potency read?
**A.** inconclusive: 1.83 µM [activator, full curve]

**Q.** With `O=C(Nc1cccc(C(=O)N2CCCc3ccccc32)c1)c1ccccc1` as the compound, how does the Potency read?
**A.** inconclusive: 11.2 µM [inhibitor, partial curve]

**Q.** With `Nc1c(S(=O)(=O)c2ccccc2)cnc2c(-c3ccc(F)cc3)cnn12` as the compound, how does the Potency read?
**A.** inconclusive: 4.61 µM [inhibitor, partial curve]
